Data as given in patent publication US20170038365.
For some assays here: Where a protein sequence is shown, tags need not be part of it.

The chains behind the UniProt entries cited, without tags or fusion partners.
UniProt O15527, whole entry: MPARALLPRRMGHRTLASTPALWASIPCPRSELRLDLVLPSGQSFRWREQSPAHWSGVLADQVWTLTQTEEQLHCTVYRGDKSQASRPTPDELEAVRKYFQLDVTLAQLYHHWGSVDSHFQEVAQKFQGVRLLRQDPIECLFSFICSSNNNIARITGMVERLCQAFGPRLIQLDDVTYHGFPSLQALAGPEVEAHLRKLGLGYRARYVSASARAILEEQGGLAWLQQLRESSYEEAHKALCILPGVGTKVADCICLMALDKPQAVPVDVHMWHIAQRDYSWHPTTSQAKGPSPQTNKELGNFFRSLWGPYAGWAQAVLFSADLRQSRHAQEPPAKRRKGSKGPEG

Experiments:
[1] = molecular target: OGG1 (8-oxoguanine DNA glycosylase-1) (Homo sapiens) (UniProt O15527); assay: enzyme reaction in vitro; conditions: n is 8-oxo-guanine; complement SEQ:2 appears printed 3'-5' [6 (8-oxo-guanine)]; 20 mM Tris-HCl, 100 mM KCl, 0.1% BSA, 0.01% Tween-20, pH 7.5, 37 C; inhibited by hydrazides; purified recombinant protein; protein details: His-tag, expressed in bacteria, Ni-NTA purified; letters built from the parent sequence and the stated change
Fpg (Escherichia coli) = molecular target: T1, Fpg (Escherichia coli) (UniProt P05523); assay: enzyme reaction in vitro; conditions: n is 8-oxo-guanine; complement SEQ:2 appears printed 3'-5' [6 (8-oxo-guanine)]; 37 C 10 min, 25 nM substrate; OGG1 inhibitors IC50 >50 uM; purified recombinant protein; protein details: New England Biolabs; letters built from the parent sequence and the stated change
T1 sequence (looked up, limits assumed): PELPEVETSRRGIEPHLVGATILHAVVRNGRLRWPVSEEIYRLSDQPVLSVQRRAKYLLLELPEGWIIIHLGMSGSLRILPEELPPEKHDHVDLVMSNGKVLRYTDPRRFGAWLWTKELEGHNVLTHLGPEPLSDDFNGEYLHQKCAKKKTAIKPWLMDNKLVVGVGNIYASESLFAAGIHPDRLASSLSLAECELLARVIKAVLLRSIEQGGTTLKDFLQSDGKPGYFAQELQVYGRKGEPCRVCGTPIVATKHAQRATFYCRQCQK

TCACCGTCGTACGACTC (double strand) [8-oxo-Gua 17-mer duplex]
activity on this sequence [1]: active
activity on this sequence (Fpg (Escherichia coli)): active
